In doi:10.1101/2022.11.30.518523:
Results are given in words; binding and its absence hold for the method and conditions named. In cells and extracts the contact can be indirect. Some results given as binding are weak or reduced against the parent protein; the word gives no strength. Tags and fused reporters may be left off the sequences shown.

Target: T1, Flag-tagged PIN1 (35S-PIN1-Flag) (Arabidopsis) (UniProt Q9C6B8)
T1 sequence: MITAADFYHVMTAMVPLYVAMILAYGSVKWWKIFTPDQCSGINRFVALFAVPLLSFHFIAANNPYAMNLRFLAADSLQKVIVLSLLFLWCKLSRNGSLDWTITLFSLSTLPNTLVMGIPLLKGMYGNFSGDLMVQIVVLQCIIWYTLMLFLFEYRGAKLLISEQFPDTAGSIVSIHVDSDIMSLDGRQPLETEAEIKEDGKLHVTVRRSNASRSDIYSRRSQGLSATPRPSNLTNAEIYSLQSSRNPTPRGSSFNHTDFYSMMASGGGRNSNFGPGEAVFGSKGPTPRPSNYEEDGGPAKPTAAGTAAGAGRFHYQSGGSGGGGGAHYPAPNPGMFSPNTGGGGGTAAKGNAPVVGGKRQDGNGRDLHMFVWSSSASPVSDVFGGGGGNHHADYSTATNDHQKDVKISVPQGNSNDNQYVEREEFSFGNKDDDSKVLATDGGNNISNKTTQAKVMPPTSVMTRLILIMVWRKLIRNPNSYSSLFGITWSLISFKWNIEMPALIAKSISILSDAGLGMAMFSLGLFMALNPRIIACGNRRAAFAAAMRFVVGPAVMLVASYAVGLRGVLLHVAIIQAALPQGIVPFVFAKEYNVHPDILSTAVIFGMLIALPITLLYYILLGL
Test: co-IP

binding: binds
B1: HA-tagged TMK1 (35S-TMK1-HA) (receptor, UniProt P43298 24-942)
chain: DSDGDLSAMLSLKKSLNPPSSFGWSDPDPCKWTHIVCTGTKRVTRIQIGHSGLQGTLSPDLRNLSELERLELQWNNISGPVPSLSGLASLQVLMLSNNNFDSIPSDVFQGLTSLQSVEIDNNPFKSWEIPESLRNASALQNFSANSANVSGSLPGFLGPDEFPGLSILHLAFNNLEGELPMSLAGSQVQSLWLNGQKLTGDITVLQNMTGLKEVWLHSNKFSGPLPDFSGLKELESLSLRDNSFTGPVPASLLSLESLKVVNLTNNHLQGPVPVFKSSVSVDLDKDSNSFCLSSPGECDPRVKSLLLIASSFDYPPRLAESWKGNDPCTNWIGIACSNGNITVISLEKMELTGTISPEFGAIKSLQRIILGINNLTGMIPQELTTLPNLKTLDVSSNKLFGKVPGFRSNVVVNTNGNPDIGKDKSSLSSPGSSSPSGGSGSGINGDKDRRGMKSSTFIGIIVGSVLGGLLSIFLIGLLVFCWYKKRQKRFSGSESSNAVVVHPRHSGSDNESVKITVAGSSVSVGGISDTYTLPGTSEVGDNIQMVEAGNMLISIQVLRSVTNNFSSDNILGSGGFGVVYKGELHDGTKIAVKRMENGVIAGKGFAEFKSEIAVLTKVRHRHLVTLLGYCLDGNEKLLVYEYMPQGTLSRHLFEWSEEGLKPLLWKQRLTLALDVARGVEYLHGLAHQSFIHRDLKPSNILLGDDMRAKVADFGLVRLAPEGKGSIETRIAGTFGYLAPEYAVTGRVTTKVDVYSFGVILMELITGRKSLDESQPEESIHLVSWFKRMYINKEASFKKAIDTTIDLDEETLASVHTVAELAGHCCAREPYQRPDMGHAVNILSSLVELWKPSDQNPEDIYGIDLDMSLPQALKKWQAYEGRSDLESSTSSLLPSLDNTQMSIPTRPYGFAESFTSVDGR
